The experiment deals with T1, GST-Bmi1 (UniProt P25916).
T1 sequence: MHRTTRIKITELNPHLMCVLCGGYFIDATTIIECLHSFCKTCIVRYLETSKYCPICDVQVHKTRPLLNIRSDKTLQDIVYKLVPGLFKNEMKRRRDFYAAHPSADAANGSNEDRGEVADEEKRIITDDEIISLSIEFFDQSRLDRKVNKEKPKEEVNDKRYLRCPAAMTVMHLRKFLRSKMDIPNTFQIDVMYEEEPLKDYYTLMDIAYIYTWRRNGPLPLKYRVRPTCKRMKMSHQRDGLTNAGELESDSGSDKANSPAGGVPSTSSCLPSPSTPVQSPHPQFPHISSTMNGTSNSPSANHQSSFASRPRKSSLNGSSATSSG
The experiment in a line: pull-down; GST-fused proteins on beads, S35-methionine-labelled in vitro translated protein; binding buffer 20 mM Tris pH 8.0, 100 mM NaCl, 0.1% NP-40, 1 mM DTT, 1 hr at 4°C; 3 washes; autoradiography; only the target purified.

Amino acid sequences for entries named in this document (tags omitted).
UniProt Q99496: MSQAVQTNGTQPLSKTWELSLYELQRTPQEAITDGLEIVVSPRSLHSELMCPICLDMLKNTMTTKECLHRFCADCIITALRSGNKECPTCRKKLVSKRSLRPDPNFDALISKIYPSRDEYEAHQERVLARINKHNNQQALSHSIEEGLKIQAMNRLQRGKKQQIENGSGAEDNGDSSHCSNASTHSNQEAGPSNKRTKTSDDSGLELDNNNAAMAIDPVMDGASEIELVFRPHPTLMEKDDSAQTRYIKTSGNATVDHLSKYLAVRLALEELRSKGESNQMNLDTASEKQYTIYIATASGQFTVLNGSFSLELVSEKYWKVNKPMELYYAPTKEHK

Results are given in words; binding and its absence hold for the method and conditions named. Binding seen in cells or lysates may run through a third protein. Some results given as binding are weak or reduced against the parent protein; the word gives no strength. Where a sequence is shown, tags or fusion partners need not be part of it.

As to “in vitro-translated (IVT) Ring1B (from UniProt Q99496 1-336)”, the binding result is on record as “binds”.

The record behind these values is PMC2659801.
